Data as given in publication PMC8556269.
These are yes or no findings as the source states them, for the method shown. In cells and extracts the contact can be indirect. Some binding calls cover weakened binding; strength is not graded here.

Molecular target: T1, Wild-type p53-induce phosphatase 1 (Wip1) (mouse (endogenous in murine MSCs)) (UniProt Q9QZ67)
T1 sequence: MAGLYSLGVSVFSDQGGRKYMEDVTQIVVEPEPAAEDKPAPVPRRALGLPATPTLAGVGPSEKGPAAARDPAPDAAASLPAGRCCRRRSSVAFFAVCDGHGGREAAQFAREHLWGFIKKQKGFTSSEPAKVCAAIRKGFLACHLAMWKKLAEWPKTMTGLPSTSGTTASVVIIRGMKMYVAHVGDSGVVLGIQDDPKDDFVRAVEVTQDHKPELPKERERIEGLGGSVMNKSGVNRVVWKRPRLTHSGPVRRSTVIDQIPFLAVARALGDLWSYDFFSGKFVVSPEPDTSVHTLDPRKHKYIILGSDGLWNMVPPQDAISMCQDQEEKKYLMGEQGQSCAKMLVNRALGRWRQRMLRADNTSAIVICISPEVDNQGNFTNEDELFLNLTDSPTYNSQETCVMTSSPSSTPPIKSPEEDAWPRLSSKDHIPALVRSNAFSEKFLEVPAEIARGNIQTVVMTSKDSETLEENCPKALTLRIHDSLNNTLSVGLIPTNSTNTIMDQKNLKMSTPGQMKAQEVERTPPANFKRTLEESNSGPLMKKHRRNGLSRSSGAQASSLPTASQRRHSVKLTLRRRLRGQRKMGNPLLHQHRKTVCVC
Test: co-IP; endogenous co-IP from murine MSCs lysed in RIPA lysis buffer at 4 °C; supernatant incubated with Wip1 Rabbit mAb or control IgG overnight, protein A/G agarose beads 2 h, washed with diluted lysis buffer, western blot

binding: binds
B1: bone marrow stromal cell antigen 2 (BST2) (protein, UniProt Q8R2Q8 1-152)
chain: MAPSFYHYLPVPMDEMGGKQGWGSHRQWLGAAILVVLFGVTLVILTIYFAVTANSVACRDGLRAQAECRNTTHLLQRQLTRTQDSLLQAETQANSCNLTVVTLQESLEKKVSQALEQQARIKELENEVTKLNQELENLRIQKETSSTVQVNS
